These are yes or no findings as the source states them, for the method shown. A result given as binding can be weak or reduced; the word gives no strength. Tags and fused reporters may be left off the sequences shown.

Amino acid sequences for entries named in this document (tags omitted). A change or cut given only in a name is not applied to a line headed by its entry.
UniProt Q92993: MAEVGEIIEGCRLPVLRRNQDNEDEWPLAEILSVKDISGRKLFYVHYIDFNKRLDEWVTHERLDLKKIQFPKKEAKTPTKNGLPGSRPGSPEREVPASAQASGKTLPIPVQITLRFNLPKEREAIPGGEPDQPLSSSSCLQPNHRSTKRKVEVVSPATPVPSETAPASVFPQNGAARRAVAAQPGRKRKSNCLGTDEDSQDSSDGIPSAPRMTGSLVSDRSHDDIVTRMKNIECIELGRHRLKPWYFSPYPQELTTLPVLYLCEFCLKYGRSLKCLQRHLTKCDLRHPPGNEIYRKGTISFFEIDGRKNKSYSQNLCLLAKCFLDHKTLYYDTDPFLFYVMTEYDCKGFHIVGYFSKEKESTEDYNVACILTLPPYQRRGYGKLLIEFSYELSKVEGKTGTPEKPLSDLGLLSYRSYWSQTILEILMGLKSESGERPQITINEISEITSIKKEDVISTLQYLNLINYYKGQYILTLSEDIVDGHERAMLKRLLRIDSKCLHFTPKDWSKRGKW

For the assay, the target named is T1, GAL4 DNA-binding domain fusion of SseF 50-66 (S. typhimurium) (UniProt O84951).
T1 sequence: QIRQQRDYAIHFMQYTI
Briefly: two-hybrid; direct test in yeast AH109: SseF constructs fused to the GAL4 binding domain, TIP60 isoforms fused to the GAL4 activation domain; growth on -Leu-Trp-His + 15 mM 3-AT, β-galactosidase in Miller units.

With “TIP60 fused to the GAL4 activation domain (isoform not named for the SseF deletion series) (from UniProt Q92993)”, the binding entry was “binds”.

The record behind these values is publication PMC3313078.
